From article PMC4059965 come the findings set out here.

By UniProt entry, the sequences of proteins in these tests, tags left out. Where a name states a change or a piece, a line headed by the entry shows the natural chain unless it says otherwise. Residues count along the entry.
UniProt P46940: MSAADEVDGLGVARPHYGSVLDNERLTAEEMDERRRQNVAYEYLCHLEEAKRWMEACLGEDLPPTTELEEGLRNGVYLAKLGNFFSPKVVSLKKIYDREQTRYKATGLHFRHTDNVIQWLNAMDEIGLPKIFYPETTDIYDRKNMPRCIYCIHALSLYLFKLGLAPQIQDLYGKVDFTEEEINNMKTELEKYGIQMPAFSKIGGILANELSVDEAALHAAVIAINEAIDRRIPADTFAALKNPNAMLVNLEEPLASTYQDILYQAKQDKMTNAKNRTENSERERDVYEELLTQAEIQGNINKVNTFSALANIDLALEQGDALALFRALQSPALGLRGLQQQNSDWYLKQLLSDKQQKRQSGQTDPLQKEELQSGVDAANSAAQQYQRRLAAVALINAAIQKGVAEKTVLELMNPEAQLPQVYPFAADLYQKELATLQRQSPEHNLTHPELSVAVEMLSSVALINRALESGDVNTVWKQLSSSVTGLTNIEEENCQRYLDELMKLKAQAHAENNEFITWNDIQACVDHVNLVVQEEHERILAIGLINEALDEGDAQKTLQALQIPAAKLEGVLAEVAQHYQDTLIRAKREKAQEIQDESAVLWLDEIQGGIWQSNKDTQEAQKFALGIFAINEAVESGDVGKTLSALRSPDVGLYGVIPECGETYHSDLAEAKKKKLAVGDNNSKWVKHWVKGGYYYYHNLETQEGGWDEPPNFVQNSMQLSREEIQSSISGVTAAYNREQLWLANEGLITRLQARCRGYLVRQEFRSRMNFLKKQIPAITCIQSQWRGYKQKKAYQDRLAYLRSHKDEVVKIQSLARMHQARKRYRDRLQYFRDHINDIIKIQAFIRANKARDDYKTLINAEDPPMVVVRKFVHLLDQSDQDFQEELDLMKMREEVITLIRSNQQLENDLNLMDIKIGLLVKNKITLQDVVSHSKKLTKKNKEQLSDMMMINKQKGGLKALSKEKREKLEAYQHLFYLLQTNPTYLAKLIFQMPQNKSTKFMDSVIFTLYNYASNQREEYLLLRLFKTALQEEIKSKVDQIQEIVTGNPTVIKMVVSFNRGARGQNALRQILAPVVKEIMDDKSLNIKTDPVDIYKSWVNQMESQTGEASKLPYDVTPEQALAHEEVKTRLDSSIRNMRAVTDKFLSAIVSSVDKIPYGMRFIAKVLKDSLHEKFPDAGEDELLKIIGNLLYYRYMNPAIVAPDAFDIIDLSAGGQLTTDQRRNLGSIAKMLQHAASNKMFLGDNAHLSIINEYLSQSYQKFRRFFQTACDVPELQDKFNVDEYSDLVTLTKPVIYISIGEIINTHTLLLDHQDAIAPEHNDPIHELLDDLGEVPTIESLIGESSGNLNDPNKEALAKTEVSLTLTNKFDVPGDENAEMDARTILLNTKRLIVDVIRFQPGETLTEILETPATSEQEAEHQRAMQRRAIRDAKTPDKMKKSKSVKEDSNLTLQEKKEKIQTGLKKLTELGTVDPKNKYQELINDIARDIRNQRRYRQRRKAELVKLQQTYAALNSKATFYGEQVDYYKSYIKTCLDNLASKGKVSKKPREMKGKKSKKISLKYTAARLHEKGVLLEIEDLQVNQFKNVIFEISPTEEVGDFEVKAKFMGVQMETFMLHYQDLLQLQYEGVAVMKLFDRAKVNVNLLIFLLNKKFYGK
GST-IQGAP1^717–863: residues 717-863 of P46940

No constants are given. Whether binding was seen depends on the method and setting. In cells and extracts the contact can be indirect. Some results given as binding are weak or reduced against the parent protein; the word gives no strength. For some assays here: Where a sequence is shown, tags or fusion partners need not be part of it.

One assay addresses IQGAP1-GFP^wt (UniProt P46940). The assay is described as follows: co-IP; HEK293 cells transfected; lysates pre-cleared, primary antibody (anti-GFP or anti-c-Myc) overnight at 4 °C, protein A or G Sepharose, washed three times with lysis buffer, immunoblot. In general terms: In western blotting, separated proteins are transferred to a membrane and probed.
The target in a further assay is GST-IQGAP1^717–863 (UniProt P46940). The assay is described as follows: pull-down; GST-IQGAP1^717–863 on glutathione Sepharose beads with lysates of transfected HEK293 cells, NP-40 lysis buffer, 2 h at 4 °C, immunoblot; only the target purified.

B1: RFP-PAK6 C-terminal mutant (domain or fragment, UniProt Q9NQU5 407-658)
chain: LDSYVKIGEGSTGIVCLAREKHSGRQVAVKMMDLRKQQRRELLFNEVVIMRDYQHFNVVEMYKSYLVGEELWVLMEFLQGGALTDIVSQVRLNEEQIATVCEAVLQALAYLHAQGVIHRDIKSDSILLTLDGRVKLSDFGFCAQISKDVPKRKSLVGTPYWMAPEVISRSLYATEVDIWSLGIMVIEMVDGEPPYFSDSPVQAMKRLRDSPPPKLKNSHKVSPVLRDFLERMLVRDPQERATAQELLDHPFL
With B1, in the assay with IQGAP1-GFP^wt, the binding entry was “binds”.

B2: GFP-PAK6 C-terminal mutant (domain or fragment, UniProt Q9NQU5 407-658)
chain: B1 chain
Turning to B2, the binding result in the assay with GST-IQGAP1^717–863 is “binds”.
